Laboratory results as given in the supplement of paper PMC4604168 (melanoma cell lines).
This is one part of the list. Many values rest on one well or one pass, so single values are uncertain.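 The apoptosis fraction was the count of cleaved-PARP antibody-stained nuclei relative to all DNA-stained nuclei, imaged in 1,536-well plates. Screening doses were set so most cells survived, and baseline and induced cleaved-PARP levels vary greatly across cell lines.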

What follows are compounds tested on MZ2-MEL (assay: cleaved PARP positive nuclei fraction relative to DMSO control; melanoma cells; higher = more apoptosis). Conditions: library dose: low library concentration; 72 h.
In the case of `C=CCn1c(=O)c2cnc(Nc3ccc(N4CCN(C)CC4)cc3)nc2n1-c1cccc(C(C)(C)O)n1` + CCCCCCCCCCCC1=C(O)C(=O)C=C(O)C1=O [Embelin] (first compound 0.02 µM, partner dose 1.2 µM), the “cleaved PARP positive nuclei fraction” value is reported as 83.9%. For `Cc1cc(N2CCOCC2)cc2[nH]c(-c3c(NC[C@@H](O)c4cccc(Cl)c4)cc[nH]c3=O)nc12` + COc1ccc(-c2ccc3c(N4CCOCC4)nc(N4C[C@@H](C)O[C@@H](C)C4)nc3n2)cc1CO [KU0063794] (first compound 0.2 µM, partner dose 0.02 µM), the “cleaved PARP positive nuclei fraction” value was 167%. For `COCC[n+]1c2c(n(Cc3cnccn3)c1C)C(=O)c1ccccc1C2=O` + O=C1NC(=O)/C(=C/c2ccc(-c3ccc(F)cc3O)o2)S1 [AS252424] (first compound 0.0004 µM, partner dose 1 µM), the “cleaved PARP positive nuclei fraction” value was 149%. In the case of `Cn1nnc2c(C(N)=O)ncn2c1=O` [temozolomide] + CCc1ccc(CCOc2ccc(CC3SC(=O)NC3=O)cc2)nc1 [pioglitazone] (first compound 2 µM, partner dose 2 µM), the “cleaved PARP positive nuclei fraction” value is reported as 110%. With `C#Cc1cccc(Nc2ncnc3cc(OCCOC)c(OCCOC)cc23)c1` [erlotinib] + Oc1cc(-c2nc(-c3ccccc3)[nH]c2-c2ccncc2)ccc1Cl [L779450] (first compound 0.8 µM, partner dose 0.2 µM) the “cleaved PARP positive nuclei fraction” value was 39%. In the case of `Cc1ccc(NC(=O)c2cccc(N(C)C)c2)cc1NC(=O)c1ccc(O)cc1` + CCN(CC)CCCCNc1ncc2cc(-c3cc(OC)cc(OC)c3)c(NC(=O)NC(C)(C)C)nc2n1 [PD173074] (first compound 2 µM, partner dose 0.1 µM), the “cleaved PARP positive nuclei fraction” value is reported as 135%.
